Measurements reported in patent publication US20060121483A1, “Methods for detecting teneurin signalling and related screening methods” (priority 2002, published 2006).
Results are given in words; binding and its absence hold for the method and conditions named. Some results given as binding are weak or reduced against the parent protein; the word gives no strength.

Target: T1, third SH3 domain of ponsin (interacting cDNA clone from a whole mouse 19day embryo DupLex-A cDNA library) (mouse) (UniProt Q62417)
T1 sequence (looked up): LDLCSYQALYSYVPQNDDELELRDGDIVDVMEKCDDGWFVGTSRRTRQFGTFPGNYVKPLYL
Test: yeast two-hybrid screen (DupLEX-A), mouse 19day embryo cDNA library

B1: Ten-1b (aminoacids 156-300 of teneurin-1) (protein, chicken, UniProt Q9W6V6 156-300, looked up, not shown: large carriers)
chain: DGENDMPGSPHNQFTFRPLPPPPPPPHACTCTRKPPPAADSLQRRSMTTRSQPSPAAPTPPTSTQDSVHLHNSWVLNSNIPLETRHFLFKHGSGSSAIFSAASQNYPLTSNTVYSPPPRPLPRNTFSRPAFTFSKPYRCCNWKCT
  binding: binds
